Assay results published in PubChem BioAssay AID588499 (NMMLSC, 2011).
The campaign covered roughly 360,000 compounds. About 610 (0.17%) were called active. This list was built around the results that the source calls inconclusive (neither active nor inactive); the mix of calls is not that of the screen. Cut-off read from the data, not from the text of the source: active = inhibition above about 30%; inconclusive = no clear call, values can overlap the other calls; inactive = below that.

Each compound was assayed on Botulinum neurotoxin type A light chain protease (Clostridium botulinum A str. ATCC 3502) (assay: blockers of BoNT/A LC substrate cleavage – biochemical, flow cytometry, MLPCN library, primary screen (AID 588499; note: plate controls were buffer without enzyme for full effect and enzyme alone for no effect)). Conditions: multiplex microsphere protease substrate cleavage, at 10 µM, hits give high values.

Structure (SMILES) | inhibition
COc1ccc(C2CC(c3ccccc3)=NN2S(=O)(=O)c2ccc(C)cc2)c(OC)c1 (stereo not given) | inactive: 0.8%
Cc1cc2cc(CNC(=O)Nc3ccccc3)ccc2n1C | active: 55.6%
Cc1ccc(OCC(=O)Nc2ccc3oc(=O)ccc3c2)cc1 | inactive: -2.7%
C=CCn1c(O)c(C(CC)=NCCc2ccccc2)c(=O)[nH]c1=O | inconclusive: -1.3%
CCC(C)[C@H](NC(=O)NCCC1=CCCCC1)C(=O)OC (stereo not given in full) | inconclusive: 19.9%
Cn1cccc1C(=O)NC(=O)COC(=O)c1cc(Cl)ccc1[N+](=O)[O-] | inactive: -0.7%
CC(=O)c1ccc(-n2ccnc2)cc1 | inconclusive: -2.1%
Cn1c(C(=O)OCC(=O)NCC2CCCO2)cc2sccc21 (stereo not given) | inactive: -2.3%
CS(=O)(=O)N(CC(=O)N1CCOCC1)Cc1ccccc1 | inconclusive: 0.4%
Cc1onc(-c2ccc(Cl)cc2)c1-c1ccnc(SCC(=O)Nc2cc(Cl)cc(Cl)c2)n1 | inconclusive: -0.4%
COC(=O)c1cccc(Nc2nc(-c3cccnc3)nc3ccccc23)c1 | inconclusive: 12%
CCOc1cc(-c2nc(-c3ccc(C)nc3OCC)no2)cc(OCC)c1OCC | inconclusive: -0.7%
Clc1ccc(-c2nc(N3CCCCC3)nc3ccccc23)cc1 | active: 31.5%
CCOC(=O)C1(C)CCCCCN1C(=O)c1ccc(SC(F)(F)F)cc1 (stereo not given) | inactive: -0.5%
CCOCCSc1nc2c(c(-c3cccs3)c1C#N)CC/C2=C/c1cccs1 | active: 76.6%
Clc1ccc(Sc2cc(Cl)c(-c3ccccc3)nn2)cc1 | inactive: 0.1%
CCOC(=O)CNC(=O)COc1coc(CN2CCN(c3ccccc3F)CC2)cc1=O | active: 38.3%
Cc1c(C(c2ccc(F)cc2)c2c(C)n(C)n(-c3ccccc3)c2=O)c(=O)n(-c2ccccc2)n1C | inconclusive: 3.3%
Clc1ccc(-c2csc(N/N=C/c3ccco3)n2)cc1 | inconclusive: -2.3%
c1ccc(CNc2ncnc3c2oc2ccccc23)nc1 | inconclusive: 0%

Structure (SMILES) | inhibition
CC(=O)c1cc(NC(=O)c2ccc(Cl)cc2)c(=O)oc1/C=C/N(C)C | inconclusive: -3.4%
CO/N=C(/CNC(=O)c1ccc(F)cc1)c1ccc(Cl)cc1 | inactive: -0.5%
Cc1ccccc1NC(=O)C(C)SCc1ccccc1 (stereo not given) | inconclusive: 3.6%
Nc1nonc1C(=O)NCCNCc1cc(Br)ccc1OCc1ccc(F)cc1 | inconclusive: 4.3%
Cc1cc(CC(C)C)n(-c2nc3ccccc3c(=O)n2OCC(N)=O)n1 | inactive: 0.3%
O=C1CSC(=Nc2ccc(Cl)cc2)N1Cc1ccco1 | inconclusive: -12.6%
O=C(Nc1ccc2oc(-c3ccccc3F)nc2c1)c1cncc(Br)c1 | inactive: 0.2%
Cc1ccc2[nH]c(-c3cccc(F)c3)cc(=O)c2c1 | inactive: -0.5%
COC(=O)NNC(=O)COc1ccc(Cl)cc1 | inconclusive: 1.1%
Cn1c(-c2ccc3c(c2)OCO3)cnc1NCc1cccc(O)c1 | inactive: -0.1%
COc1cc2c(cc1OC)/C(=C/c1ccc(Cl)cc1)C(=O)OC2 | inactive: -0.7%
COc1ccc(NC(=O)CN(C)C(=O)CCCc2c[nH]c3ccccc23)cc1 | inconclusive: -7.1%
CCCC(=O)n1nc(-c2cccnc2)nc1N | inconclusive: -3.9%
O=C1C(=O)N(CCS(=O)(=O)c2ccccc2)c2ccc(F)cc21 | inconclusive: -0.2%
Cc1ccc(S(=O)(=O)CCC(=O)O)cc1C | inconclusive: 3.5%
Cc1nnc(NC(=O)c2cccc(S(=O)(=O)N3CCc4ccccc43)c2)s1 | inactive: 1.1%
CCc1nnc(N/N=C/c2c(C)[nH]c3ccccc23)n1N | inactive: -0.6%
CC1(CC(=O)O)SC(=O)NC1=O (stereo not given) | inconclusive: -6.1%
CCn1ncc(C2=NOC(C(=O)N3CCC(C(N)=O)CC3)C2)c1C (stereo not given) | inconclusive: 7%
COc1ccc(CCNC(=O)CN(c2ccccc2OC)S(C)(=O)=O)cc1 | inconclusive: -1.1%

Structure (SMILES) | inhibition
CC(=O)/C(N=Nc1ccc(OC(F)(F)F)cc1)=C(\C)O | inconclusive: -5%
Cc1cccc(CN2C(=O)c3ccccc3Sc3ccc(C(=O)O)cc32)c1 | inactive: -1.1%
O=C(c1cc2ccccc2o1)N1CCN(c2ccccn2)CC1 | inactive: 1.7%
COc1ccc(S(=O)(=O)Nc2c(C)n(C)n(-c3ccccc3)c2=O)cc1 | inconclusive: 0.6%
O=C(NCc1cccnc1)/C(=C/c1ccc(-c2cccc(C(F)(F)F)c2)o1)NC(=O)c1ccccc1 | inconclusive: -9.8%
CCOC(=O)C1(C)CCN1C(=O)c1cccc2ccccc12 (stereo not given) | inactive: 0%
COc1c([N+](=O)[O-])cc(C(=O)NNC(=O)c2ccc(C)cc2)cc1[N+](=O)[O-] | inactive: -1.9%
O=C(OCCN=C1NS(=O)(=O)c2ccccc21)C1CC(=O)N(c2ccc3ccccc3c2)C1 (stereo not given) | inconclusive: 3.8%
CCOC(=O)C1CCCC12Nc1cccc3cccc(c13)N2 (stereo not given) | inactive: -0.1%
C=C1N(C)c2cc([N+](=O)[O-])c(N)cc2C1(C)C | inconclusive: 1.3%
COc1ccc(OC)c(NC(=O)c2cc3c(=O)n4ccccc4nc3n2C)c1 | inactive: -1.3%
CC(=O)NC(=O)c1cnn(-c2ccccc2)c1N | inconclusive: -13.8%
COc1ccc(CNC(=O)CCCCCn2c(SCC#N)nc3cc4c(cc3c2=O)OCO4)cc1 | inconclusive: 1.4%
CCC(CC)C(=O)NCc1ccc2c(c1)cc(C)n2C | active: 32%
COc1cccc(-c2cc(C(=O)Nc3ccccc3SC)no2)c1 | inconclusive: -1.6%
COc1ccc(-c2c(C#N)c(N)nc(Sc3ccc(Cl)cc3)c2C#N)cc1 | inconclusive: 5.6%
Cc1ccc(CN2C(=O)C(C)Sc3ccc(C#N)cc32)cc1 (stereo not given) | inactive: -0.3%
Cc1cc(N2CCC(C)CC2)c(F)cc1[N+](=O)[O-] | inactive: -0.7%
COc1ccc(CNCC(O)(c2ccc(Cl)cc2)c2ccc(Cl)cc2)cc1OC | inactive: -5.7%
COc1cccc2cc(NC(=O)C3CCCCC3)c(=O)oc12 | inconclusive: 3.8%

Part of the list above, in markdown:

| Structure (SMILES) | inhibition |
| --- | --- |
| COc1cccc(-c2cc(C(=O)Nc3ccccc3SC)no2)c1 | inconclusive: -1.6% |
| COc1cccc2cc(NC(=O)C3CCCCC3)c(=O)oc12 | inconclusive: 3.8% |
